From patent publication US5180712A, “Petide antidementia and nootropic agents” (Fujirebio Kabushiki Kaisha, priority 1988, dated 1993)
Not every detail of the peptide structures is certain; ends, links or a residue may be inferred. Where a SMILES comes first, the peptide text is derived from it. [ ]: non-standard residue; d: D form. The star is where a group is joined. Cys(free,S-linked) = N[C@@H](CS*)C(=O)O; pGlu = O=C1CC[C@@H](C(=O)O)N1

Tests used:
male Wistar rats [1] = test: one-trial passive avoidance: improvement effect of experimental retrograde amnesia by cycloheximide; type: in vivo, rat; conditions: dose 10 ng/kg, 1 hr before electro-shock (0.5 mA); cycloheximide 2.7 to 3.0 mg/kg s.c. after shock; tested at 48 hours
Description: The effect of peptides of the invention on memory consolidation was evaluated by conducting one-trial passive avoidance experiments using male Wistar rats in accordance with the method described by Burbach et al., Science, vol. 221, pp. 1310-1312, 1983. The apparatus was composed of an illuminated room and a dark room, and their floors were made of a stainless-steel grid. The rats placed in the illuminated room could freely enter the dark room. Upon entering the dark room the rats received an electro-shock. Retention of passive avoidance behavior to the electro-shock was determined by the measurement of a response latent period, i.e. the period required for the rat which experienced the electro-shock to re-enter the dark room from the time at which the rat was placed in the illuminated room after predetermined intervals. The rats received an electro-shock (0.5 mA) one hr. after the administration of the peptides of the invention or a physiological saline solution. Immediately after receiving the electro-shock, the rats were treated with 2.7 to 3.0 mg/kg of cycloheximide or the saline solution by subcutaneous injection. At 48 hours after the administration was made, memory retention of the rats was tested. […] The response latent period was measured up to a maximum of 600 seconds. […]

male Wistar rats [2] = test: one-trial passive avoidance: facilitation effect of memory consolidation; type: in vivo, rat; conditions: dose 10 ng/kg subcutaneous immediately after electro-shock (0.25 mA); retention tested 24 hours later; latency max 600 seconds
Description: The effect of peptides of the invention on memory consolidation was evaluated by conducting one-trial passive avoidance experiments using male Wistar rats in accordance with the method described by Burbach et al., Science, vol. 221, pp. 1310-1312, 1983. The apparatus was composed of an illuminated room and a dark room, and their floors were made of a stainless-steel grid. The rats placed in the illuminated room could freely enter the dark room. Upon entering the dark room the rats received an electro-shock. Retention of passive avoidance behavior to the electro-shock was determined by the measurement of a response latent period, i.e. the period required for the rat which experienced the electro-shock to re-enter the dark room from the time at which the rat was placed in the illuminated room after predetermined intervals. The rats were treated with the peptides of the invention obtained in the aforementioned Example 1 to 4 or a physiological saline solution by means of a subcutaneous injection immediately after receiving the electro-shock (0.25 mA). Then 24 hours later, the retention of the memory of the electro-shock was tested. […] Comparison Compound 2 (known peptide): [drawing 14] For each group, 6 to 8 rats were tested. The response latent period was measured up to a maximum of 600 seconds. […]

SMILES: N=C(N)NCCC[C@H](NC(=O)[C@@H]1CCCN1C(=O)[C@H](CSSC[C@H](N)C(=O)O)NC(=O)[C@H](CC(N)=O)NC(=O)[C@@H]1CCC(=O)N1)C(=O)NCC(N)=O [Comparison 1, reference compound] ([pGlu]NC(Cys(free,S-linked))PRG-NH2)
- Effect (ratio of response latent period of each group to that of the control groups) (male Wistar rats [1]): 583%
- Effect (ratio of the response latent period of each group to that of the control groups) (male Wistar rats [2]): 313%
